Reference: PMC10999543, “Identification of kinase modulators as host-directed therapeutics against intracellular methicillin-resistant Staphylococcus aureus” (Frontiers in Cellular and Infection Microbiology, 2024)
Read-outs that look alike come from different tables or passages of the source.

Test system: intracellular MRSA
Assay type: cell-based, Staphylococcus aureus
Settings: for %GFP+ rep 1 / %GFP+ rep 2 / %GFP+ rep 3: PKIS compound screen raw data; for %GFP+ rep 1 / %GFP+ rep 2 / %GFP+ rep 3 / z-scoreMRSA+ mean / z-scoreMRSA+ rep 1 / z-scoreMRSA+ rep 2 / z-scoreMRSA+ rep 3: MRSA-infected HeLa cells; for %GFP+ rep 1 / z-scoreMRSA+ rep 1: replicate 1; for %GFP+ rep 2 / z-scoreMRSA+ rep 2: replicate 2; for %GFP+ rep 3 / z-scoreMRSA+ rep 3: replicate 3; for z-scoreMRSA+ mean: mean of 3 replicates
Description: The cells were resuspended in cell culture medium without antibiotics, seeded with 10,000 cells/well into Costar flat-bottom 96-well plates (Corning, Amsterdam, the Netherlands), and were incubated overnight at 37°C/5% CO2. The next day, the bacteria were centrifuged at ≥1800 g for 15 min and resuspended in cold PBS + 5 mM ethylenediaminetetraacetic acid (EDTA). The number of CFUs present in the bacterial suspension was estimated from the optical density at 600 nm (OD600) by assuming 8x10^8 CFUs to be present in a bacterial suspension with OD600 = 1, based on prior titrations. The bacterial suspension was diluted in cell culture medium without antibiotics and added to the cells. Accuracy of the multiplicity of infection (MOI) was validated by plating serial dilutions of the MRSA inoculums on Difco TS agar plates (BD Biosciences). The calculated mean MOI throughout all experiments was 6.8 ± 4.6 (mean ± SD). Infected cells were centrifuged for 3 min at 150 g and incubated for 1 hour at 37°C/5% CO2. Next, the cells were incubated with fresh cell culture medium supplemented with 30 µg/ml gentamicin sulphate (Lonza BioWhittaker, Basel, Switzerland) for 15 min at 37°C/5% CO2 to kill residual extracellular bacteria. Infected cells were incubated overnight at 37°C/5% CO2 in cell culture medium in the presence of kinase inhibitors and 5 µg/ml gentamicin sulphate-containing medium to prevent the growth of extracellular bacteria. The solvent of the compounds, DMSO, was used at equal % v/v as a negative control. For the screen, each compound was tested in triplicate, on separate cell culture plates, resulting in triplicate values for each kinase inhibitor.
HeLa cells were harvested by trypsinization and fixed with 1% paraformaldehyde. Samples were measured on a FACSLyric with HTS extension (BD Biosciences). Flow cytometry data were analysed using FlowJo version 10 (TreeStar, Ashland, OR, USA). HeLa cells positive for GFP were gated to calculate the percentage of MRSA-infected cells. The cell count was used as surrogate readout of cell viability.
To identify potential “hit” compounds, the flow cytometry data were used to calculate standard z-scores using z = (x-μ)/σ – zneg, where x is total event count or the percent of GFP-positive cells from a single well, μ is the mean from wells of the plate, σ is the standard deviation of the plate and zneg is the mean z-score of the negative control of the plate (i.e., DMSO) ([Korbee et al., 2018]). To minimize the possibility that the presence of extreme values on a plate affected the z-scores, raw values that deviated two-fold from the negative controls were excluded when calculating plate means and standard deviations as used in the aforementioned formula. Compounds were considered a “hit” when z-scoreMRSA+ ≤ -2 and z-scoreHeLa ≥ -3 for cell count. In cases where compounds were screened twice, the average values were used to select hit compounds.

Structure (SMILES)	%GFP+ rep 1	%GFP+ rep 2	%GFP+ rep 3	z-scoreMRSA+ mean (PKIS compound screen)	z-scoreMRSA+ rep 1 (PKIS compound screen)	z-scoreMRSA+ rep 2 (PKIS compound screen)	z-scoreMRSA+ rep 3 (PKIS compound screen)	hit (PKIS compound screen, Yes/No call (effect without cell death))	effect (PKIS compound screen, Yes/No call on z-scoreMRSA+)	effect (Yes/No call from z-scoreMRSA+)	hit (Yes/No: effect without cell death)	z-scoreMRSA+ mean (compound screen)	z-scoreMRSA+ rep 1 (compound screen)	z-scoreMRSA+ rep 2 (compound screen)	z-scoreMRSA+ rep 3 (compound screen)
Cc1cc(C)cc(Oc2nccc(-c3c(-c4ccc(F)cc4)ncn3C3CCNCC3)n2)c1 [SB-284851-BT]	13.8%	15.4%	15.3%	-1.20	-1.29	-0.94	-1.37	No	No	–	–	–	–	–	–
Cc1ccc(C)c(Oc2nccc(-c3c(-c4ccc(F)cc4)ncn3C3CCNCC3)n2)c1 [SB-284852-BT]	16.8%	17.7%	18.3%	–	–	–	–	–	–	No	No	-0.60	-0.53	-0.47	-0.80
